Data taken from patent publication US20170000132A1, “BENZOXABOROLE FUNGICIDES” (SYNGENTA PARTICIPATIONS AG, priority 2013, published 2017).
Some entries share one result that the patent states for a list of compounds. For at least one compound, name, drawing or mass did not settle the structure.

Key:
Assay type in all cases: cell-based
Gaeumannomyces graminis = Gaeumannomyces graminis / liquid culture (take-all of cereals); conditions: 200 ppm, PDB, 4-5 days after application
[1] = system: Glomerella lagenarium (Colletotrichum lagenarium); assay: Glomerella lagenarium / liquid culture (anthracnose); conditions: 200 ppm, PDB, 3-4 days after application
[2] = system: Monographella nivalis (Microdochium nivale); assay: Monographella nivalis / liquid culture (foot rot cereals); conditions: 200 ppm, PDB, 4-5 days after application
Pythium ultimum = Pythium ultimum / liquid culture (seedling damping off); conditions: 200 ppm, potato dextrose broth, 2-3 days after application

Measured: disease control (inhibition of growth, photometric)

CC(ON=Cc1cc(F)cc2c1B(O)OC2)c1ccc(Cl)c(Cl)c1 (single isomer, unassigned) [Compound 294]
at least 80%: Gaeumannomyces graminis | [1] | [2]

CC(C)=CCON=Cc1cccc2c1B(O)OC2 (single isomer, unassigned) [Compound 335]
at least 80%: all assays above

OB1OCc2cc(Cl)c(C=NNC(=S)N3CCCC3)cc21 (single isomer, unassigned) [Compound 21]
at least 80%: all assays above

Cc1ccc(CON=Cc2cc(F)cc3c2B(O)OC3)cc1 (single isomer, unassigned) [Compound 291]
at least 80%: all assays above

OB1OCc2cc(C=NOCc3ccc(Cl)cc3Cl)ccc21 (single isomer, unassigned) [Compound 422]
at least 80%: Gaeumannomyces graminis | [1] | [2]

O=[N+]([O-])c1ccc(ON=Cc2cccc3c2B(O)OC3)cc1 (single isomer, unassigned) [Compound 345]
at least 80%: all assays above

CC(Cl)=CCON=Cc1cccc2c1B(O)OC2 [Compound 333]
at least 80%: all assays above

OB1OCc2cc(F)c(C=NNc3ccc(Cl)cc3)cc21 (single isomer, unassigned) [Compound 112]
at least 80%: all assays above

CC(C)(C)ON=Cc1cc(Cl)cc2c1B(O)OC2 (single isomer, unassigned) [Compound 191]
at least 80%: all assays above

OB1OCc2cc(C=NNc3c(Cl)cc(C(F)(F)F)cc3Cl)ccc21 (single isomer, unassigned) [Compound 382]
at least 80%: Gaeumannomyces graminis | [1] | [2]

OB1OCc2cc(Cl)cc(C=NNc3c(Cl)cc(C(F)(F)F)cc3Cl)c21 (single isomer, unassigned) [Compound 180]
at least 80%: all assays above

OB1OCc2cc(C=NOCc3ccc(F)cc3Cl)ccc21 (single isomer, unassigned) [Compound 424]
at least 80%: Gaeumannomyces graminis | [1] | [2]

C#CCOc1ccc(CON=Cc2cccc3c2B(O)OC3)cc1OC (single isomer, unassigned) [Compound 353]
at least 80%: all assays above

CCCCON=Cc1cccc2c1B(O)OC2 (single isomer, unassigned) [Compound 331]
at least 80%: Pythium ultimum | Gaeumannomyces graminis | [2]

N#Cc1ccc(ON=Cc2ccc3c(c2)COB3O)cc1 (single isomer, unassigned) [Compound 421]
at least 80%: Pythium ultimum | Gaeumannomyces graminis | [2]

OB1OCc2cc(Cl)c(C=NOCc3c(Cl)cccc3Cl)cc21 (single isomer, unassigned) [Compound 53]
at least 80%: Gaeumannomyces graminis | [1] | [2]

OB1OCc2cc(C=NOC3CCCCO3)ccc21 (single isomer, unassigned) [Compound 396]
at least 80%: Pythium ultimum | Gaeumannomyces graminis | [2]

OB1OCc2cc(Cl)cc(C=NNc3ccc(C(F)(F)F)cc3)c21 (single isomer, unassigned) [Compound 185]
at least 80%: Pythium ultimum | Gaeumannomyces graminis | [2]

OB1OCc2cccc(C=NNc3c(Cl)cc(C(F)(F)F)cc3Cl)c21 (single isomer, unassigned) [Compound 315]
at least 80%: Pythium ultimum | Gaeumannomyces graminis | [2]

OB1OCc2cc(F)cc(C=NNc3c(Cl)cc(C(F)(F)F)cc3Cl)c21 (single isomer, unassigned) [Compound 259]
at least 80%: Pythium ultimum | Gaeumannomyces graminis | [2]

OB1OCc2cc(F)cc(C=NOCc3ccc(F)cc3Cl)c21 (single isomer, unassigned) [Compound 292]
at least 80%: Gaeumannomyces graminis | [1] | [2]

OB1OCc2cc(F)cc(C=NOCc3ccc(Cl)cc3Cl)c21 (single isomer, unassigned) [Compound 290]
at least 80%: Gaeumannomyces graminis | [1] | [2]

Cc1ccc(CON=Cc2ccc3c(c2)COB3O)cc1 (single isomer, unassigned) [Compound 423]
at least 80%: Gaeumannomyces graminis | [1] | [2]

CC(ON=Cc1cc(F)cc2c1B(O)OC2)c1cc(Cl)cc(Cl)c1 (single isomer, unassigned) [Compound 293]
at least 80%: Gaeumannomyces graminis | [1] | [2]
